Results taken from US20250019438A1 (AstraZeneca / MedImmune, published 2025).
Results are given in words; binding and its absence hold for the method and conditions named. Some results given as binding are weak or reduced against the parent protein; the word gives no strength.

Chains of the proteins cited; added tags and fusions are not shown. Lines headed by an entry give the natural chain unless they say otherwise; changes in a name come on top.
UniProt Q95LI5: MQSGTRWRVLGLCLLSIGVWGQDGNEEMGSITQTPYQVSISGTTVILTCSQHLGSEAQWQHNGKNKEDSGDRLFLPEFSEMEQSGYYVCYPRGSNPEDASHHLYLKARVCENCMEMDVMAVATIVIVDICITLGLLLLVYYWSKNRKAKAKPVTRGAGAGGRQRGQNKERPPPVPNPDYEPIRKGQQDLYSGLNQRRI

What was measured:
[1] = target: T1, Cynomolgus monkey CD3 on HSC-F cells (cynomolgus monkey, UniProt Q95LI5 22-198; Q95LI8 22-171; Q95LI7 23-181); assay: flow cytometry on HSC-F cells
T1 construct: whole, on cells; CD3 complex; also called cyCD3+; cynomolgus CD3+ cells

[2] = target: T1, Cynomolgus monkey CD3 on HSC-F cells; assay: flow cytometry on HSC-F cells (cyCD3+), detection with Alexa Fluor 647 goat F(ab')2 anti-human IgG Fcγ
[3] = target: T1, Cynomolgus monkey CD3 on HSC-F cells; assay: flow cytometry on HSC-F cells (cyCD3++), detection with Alexa Fluor 647 goat F(ab')2 anti-human IgG Fcγ

Measured: binding

B1: AZ Vκ+AZ VH IgG1-TM (antibody, V domains shown)
VH: QVQLVESGGGVVQPGRSLRLSCAASGFTFTKAWMHWVRQAPGKQLEWVAQIKDKSNSYATYYADSVKGRFTISRDDSKNTLYLQMNSLRAEDTAVYYCRGVYYALSPFDYWGQGTLVTVSS
VL: DIVMTQTPLSLSVTPGQPASISCKSSQSLVHNNANTYLSWYLQKPGQSPQSLIYKVSNRFSGVPDRFSGSGSGTDFTLKISRVEAEDVGVYYCGQGTQYPFTFGSGTKVEIK
notes: also called parental AZ Vκ+AZ VH IgG1-TM; parental anti-CD3 antibody
binds: all assays above
